Laboratory results published in the supplement of paper PMC6411743.
± gives the standard deviation of the averaged measurements. The list shows a part of the results.

The chains behind the UniProt entries cited, without tags or fusion partners. Where a name states a change or a piece, a line headed by the entry shows the natural chain unless it says otherwise.
UniProt Q9Y2L9: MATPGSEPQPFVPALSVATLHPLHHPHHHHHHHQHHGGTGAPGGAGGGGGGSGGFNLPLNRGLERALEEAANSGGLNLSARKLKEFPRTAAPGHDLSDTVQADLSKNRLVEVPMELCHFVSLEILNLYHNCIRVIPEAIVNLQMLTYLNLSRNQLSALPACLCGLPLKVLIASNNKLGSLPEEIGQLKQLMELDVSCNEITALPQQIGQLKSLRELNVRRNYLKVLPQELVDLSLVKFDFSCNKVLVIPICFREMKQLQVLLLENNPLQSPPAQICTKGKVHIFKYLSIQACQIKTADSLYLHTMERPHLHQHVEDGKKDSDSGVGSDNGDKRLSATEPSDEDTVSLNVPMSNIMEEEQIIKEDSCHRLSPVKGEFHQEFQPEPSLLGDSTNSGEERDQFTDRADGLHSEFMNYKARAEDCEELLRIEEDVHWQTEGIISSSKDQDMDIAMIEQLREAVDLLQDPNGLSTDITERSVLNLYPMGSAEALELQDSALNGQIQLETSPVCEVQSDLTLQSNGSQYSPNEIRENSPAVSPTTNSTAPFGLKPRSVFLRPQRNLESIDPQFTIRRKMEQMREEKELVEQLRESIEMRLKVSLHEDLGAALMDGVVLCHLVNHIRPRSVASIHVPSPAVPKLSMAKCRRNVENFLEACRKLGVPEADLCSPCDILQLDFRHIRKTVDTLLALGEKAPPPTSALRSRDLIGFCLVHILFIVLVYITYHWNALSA
UniProt Q9Y6A9: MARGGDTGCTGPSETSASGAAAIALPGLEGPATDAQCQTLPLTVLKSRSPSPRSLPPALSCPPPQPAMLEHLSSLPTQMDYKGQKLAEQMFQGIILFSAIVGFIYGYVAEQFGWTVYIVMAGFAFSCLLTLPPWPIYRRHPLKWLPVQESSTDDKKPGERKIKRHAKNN
UniProt Q9Y6D6: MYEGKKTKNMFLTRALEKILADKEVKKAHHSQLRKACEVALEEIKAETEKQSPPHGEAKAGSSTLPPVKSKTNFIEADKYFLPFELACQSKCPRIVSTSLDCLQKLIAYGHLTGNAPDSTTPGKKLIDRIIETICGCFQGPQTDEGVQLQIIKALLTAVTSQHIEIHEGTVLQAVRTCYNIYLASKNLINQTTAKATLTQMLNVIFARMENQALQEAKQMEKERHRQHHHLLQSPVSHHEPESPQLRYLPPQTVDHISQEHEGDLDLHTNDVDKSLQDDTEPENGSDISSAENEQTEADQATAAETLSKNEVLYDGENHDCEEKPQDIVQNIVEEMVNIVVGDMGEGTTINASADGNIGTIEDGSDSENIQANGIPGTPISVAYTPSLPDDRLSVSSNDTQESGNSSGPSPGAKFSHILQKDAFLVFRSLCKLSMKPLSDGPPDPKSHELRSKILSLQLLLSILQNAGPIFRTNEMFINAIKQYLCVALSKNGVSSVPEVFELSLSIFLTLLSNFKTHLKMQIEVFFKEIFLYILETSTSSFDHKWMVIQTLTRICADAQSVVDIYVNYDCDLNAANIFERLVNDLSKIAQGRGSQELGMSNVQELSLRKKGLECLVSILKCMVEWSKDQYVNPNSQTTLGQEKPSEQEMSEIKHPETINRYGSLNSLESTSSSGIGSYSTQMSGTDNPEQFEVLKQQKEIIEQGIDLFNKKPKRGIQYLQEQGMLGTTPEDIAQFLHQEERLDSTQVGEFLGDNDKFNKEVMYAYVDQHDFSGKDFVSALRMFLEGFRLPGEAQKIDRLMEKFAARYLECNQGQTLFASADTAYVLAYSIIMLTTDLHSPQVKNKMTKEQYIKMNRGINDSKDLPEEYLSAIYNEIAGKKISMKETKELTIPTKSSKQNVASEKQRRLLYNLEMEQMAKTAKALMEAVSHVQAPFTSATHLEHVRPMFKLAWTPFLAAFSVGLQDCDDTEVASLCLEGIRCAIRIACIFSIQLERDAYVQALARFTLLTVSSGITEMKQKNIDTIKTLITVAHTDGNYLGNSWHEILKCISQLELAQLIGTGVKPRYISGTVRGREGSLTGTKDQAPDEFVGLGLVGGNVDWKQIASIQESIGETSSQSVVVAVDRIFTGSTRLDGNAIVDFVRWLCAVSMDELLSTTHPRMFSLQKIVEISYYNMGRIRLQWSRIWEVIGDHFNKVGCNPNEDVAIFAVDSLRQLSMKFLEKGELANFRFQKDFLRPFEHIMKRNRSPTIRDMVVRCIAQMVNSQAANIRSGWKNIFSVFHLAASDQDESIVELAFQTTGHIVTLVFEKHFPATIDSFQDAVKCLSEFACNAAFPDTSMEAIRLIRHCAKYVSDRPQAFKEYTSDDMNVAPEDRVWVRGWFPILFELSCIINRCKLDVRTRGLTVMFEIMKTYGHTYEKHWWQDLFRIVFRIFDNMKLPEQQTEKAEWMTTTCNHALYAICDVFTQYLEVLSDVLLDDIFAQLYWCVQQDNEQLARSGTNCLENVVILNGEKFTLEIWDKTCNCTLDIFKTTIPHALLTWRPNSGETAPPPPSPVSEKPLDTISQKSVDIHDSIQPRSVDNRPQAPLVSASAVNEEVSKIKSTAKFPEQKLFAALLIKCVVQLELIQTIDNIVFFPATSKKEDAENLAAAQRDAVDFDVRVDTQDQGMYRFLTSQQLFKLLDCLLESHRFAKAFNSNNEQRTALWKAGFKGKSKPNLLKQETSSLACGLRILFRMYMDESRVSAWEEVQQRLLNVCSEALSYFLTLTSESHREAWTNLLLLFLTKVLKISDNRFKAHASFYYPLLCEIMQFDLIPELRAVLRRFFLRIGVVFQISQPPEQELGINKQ

Compound: Nc1nc2c(ncn2[C@@H]2O[C@H](COP(=O)(O)OP(=O)(O)OP(=O)(O)O)[C@@H](O)[C@H]2O)c(=O)[nH]1 [guanosine triphosphate]
Test: NP40-soluble protein abundance relative to vehicle (solubility fold change) (ratio); higher = more soluble protein in presence of GTP
Experimental: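 Solubility proteome profiling in Jurkat crude lysate. Lysate was treated with Mg-GTP (0.1-10 mM) for 10 min at room temperature and 3 min at 37 °C, then solubilised with 0.8% NP40 and benzonase, followed by ultracentrifugation. Proteins were quantified by TMT10 LC-MS/MS; the value is the NP40-soluble abundance relative to the NP40-processed vehicle, from 3 independent experiments.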

UniProt Q9Y2L9 and related entries
NP40-soluble protein abundance (concentration: 0.1mM): 1.05 ± 0.063 | NP40-soluble protein abundance (concentration: 0.5mM): 1 ± 0.082 | NP40-soluble protein abundance (concentration: 1mM): 0.979 ± 0.026 | NP40-soluble protein abundance (concentration: 2mM): 1.02 ± 0.072 | NP40-soluble protein abundance (concentration: 4mM): 1.02 ± 0.028 | NP40-soluble protein abundance (concentration: 6mM): 1.08 ± 0.079 | NP40-soluble protein abundance (concentration: 8mM): 1.03 ± 0.067 | NP40-soluble protein abundance (concentration: 10mM): 1.01 ± 0.086

UniProt Q9Y6A9 and related entries
NP40-soluble protein abundance (concentration: 0.1mM): 0.932 ± 0.089 | NP40-soluble protein abundance (concentration: 0.5mM): 0.988 ± 0.052 | NP40-soluble protein abundance (concentration: 1mM): 0.921 ± 0.11 | NP40-soluble protein abundance (concentration: 2mM): 0.916 ± 0.094 | NP40-soluble protein abundance (concentration: 4mM): 0.89 ± 0.12 | NP40-soluble protein abundance (concentration: 6mM): 0.892 ± 0.1 | NP40-soluble protein abundance (concentration: 8mM): 0.867 ± 0.17 | NP40-soluble protein abundance (concentration: 10mM): 0.869 ± 0.098

UniProt Q9UN86-2|Q9UN86
NP40-soluble protein abundance (concentration: 0.1mM): 0.99 ± 0.086 | NP40-soluble protein abundance (concentration: 0.5mM): 1.02 ± 0.074 | NP40-soluble protein abundance (concentration: 1mM): 1.06 ± 0.08 | NP40-soluble protein abundance (concentration: 2mM): 1.06 ± 0.09 | NP40-soluble protein abundance (concentration: 4mM): 1.12 ± 0.1 | NP40-soluble protein abundance (concentration: 6mM): 1.16 ± 0.086 | NP40-soluble protein abundance (concentration: 8mM): 1.24 ± 0.1 | NP40-soluble protein abundance (concentration: 10mM): 1.21 ± 0.11

ARFGEF1 (UniProt Q9Y6D6)
NP40-soluble protein abundance (concentration: 0.1mM): 1.03 ± 0.061 | NP40-soluble protein abundance (concentration: 0.5mM): 1.01 ± 0.028 | NP40-soluble protein abundance (concentration: 1mM): 1 ± 0.031 | NP40-soluble protein abundance (concentration: 2mM): 1.01 ± 0.039 | NP40-soluble protein abundance (concentration: 4mM): 1.03 ± 0.046 | NP40-soluble protein abundance (concentration: 6mM): 0.996 ± 0.056 | NP40-soluble protein abundance (concentration: 8mM): 1 ± 0.037 | NP40-soluble protein abundance (concentration: 10mM): 1.02 ± 0.046

DNMT3A (UniProt Q9Y6K1)
NP40-soluble protein abundance (concentration: 0.1mM): 1.091 ± 0.0068 | NP40-soluble protein abundance (concentration: 0.5mM): 1.06 ± 0.03 | NP40-soluble protein abundance (concentration: 1mM): 1.04 ± 0.019 | NP40-soluble protein abundance (concentration: 2mM): 1.12 ± 0.1 | NP40-soluble protein abundance (concentration: 4mM): 1.09 ± 0.057 | NP40-soluble protein abundance (concentration: 6mM): 1.09 ± 0.081 | NP40-soluble protein abundance (concentration: 8mM): 1.1 ± 0.037 | NP40-soluble protein abundance (concentration: 10mM): 1.08 ± 0.07
